The record followed here is publication PMC8298264, “Function of cofactor Akirin2 in the regulation of gene expression in model human neutrophil-like HL60 cells” (Bioscience Reports, 2021).

B1: sp¦Q13043¦STK4_HUMAN (protein, UniProt Q13043 1-487, looked up)
Serine/threonine-protein …: METVQLRNPPRRQLKKLDEDSLTKQPEEVFDVLEKLGEGSYGSVYKAIHKETGQIVAIKQVPVESDLQEIIKEISIMQQCDSPHVVKYYGSYFKNTDLWIVMEYCGAGSVSDIIRLRNKTLTEDEIATILQSTLKGLEYLHFMRKIHRDIKAGNILLNTEGHAKLADFGVAGQLTDTMAKRNTVIGTPFWMAPEVIQEIGYNCVADIWSLGITAIEMAEGKPPYADIHPMRAIFMIPTNPPPTFRKPELWSDNFTDFVKQCLVKSPEQRATATQLLQHPFVRSAKGVSILRDLINEAMDVKLKRQESQQREVDQDDEENSEEDEMDSGTMVRAVGDEMGTVRVASTMTDGANTMIEHDDTLPSQLGTMVINAEDEEEEGTMKRRDETMQPAKPSFLEYFEQKEKENQINSFGKSVPGPLKNSSDWKIPQDGDYEFLKSWTVEDLQKRLLALDPMMEQEIEEIRQKYQSKRQPILDAIEAKKRRQQNF
B2: sp¦Q53EL6¦PDCD4_HUMAN (protein, UniProt Q53EL6 1-469, looked up)
Programmed cell death protein …: MDVENEQILNVNPADPDNLSDSLFSGDEENAGTEEIKNEINGNWISASSINEARINAKAKRRLRKNSSRDSGRGDSVSDSGSDALRSGLTVPTSPKGRLLDRRSRSGKGRGLPKKGGAGGKGVWGTPGQVYDVEEVDVKDPNYDDDQENCVYETVVLPLDERAFEKTLTPIIQEYFEHGDTNEVAEMLRDLNLGEMKSGVPVLAVSLALEGKASHREMTSKLLSDLCGTVMSTTDVEKSFDKLLKDLPELALDTPRAPQLVGQFIARAVGDGILCNTYIDSYKGTVDCVQARAALDKATVLLSMSKGGKRKDSVWGSGGGQQSVNHLVKEIDMLLKEYLLSGDISEAEHCLKELEVPHFHHELVYEAIIMVLESTGESTFKMILDLLKSLWKSSTITVDQMKRGYERIYNEIPDINLDVPHSYSVLERFVEECFQAGIISKQLRDLCPSRGRKRFVSEGDGGRLKPESY
B3: sp¦Q9Y285¦SYFA_HUMAN (protein, UniProt Q9Y285 2-508, looked up)
Phenylalanine--tRNA ligase …: ADGQVAELLLRRLEASDGGLDSAELAAELGMEHQAVVGAVKSLQALGEVIEAELRSTKHWELTAEGEEIAREGSHEARVFRSIPPEGLAQSELMRLPSGKVGFSKAMSNKWIRVDKSAADGPRVFRVVDSMEDEVQRRLQLVRGGQAEKLGEKERSELRKRKLLAEVTLKTYWVSKGSAFSTSISKQETELSPEMISSGSWRDRPFKPYNFLAHGVLPDSGHLHPLLKVRSQFRQIFLEMGFTEMPTDNFIESSFWNFDALFQPQQHPARDQHDTFFLRDPAEALQLPMDYVQRVKRTHSQGGYGSQGYKYNWKLDEARKNLLRTHTTSASARALYRLAQKKPFTPVKYFSIDRVFRNETLDATHLAEFHQIEGVVADHGLTLGHLMGVLREFFTKLGITQLRFKPAYNPYTEPSMEVFSYHQGLKKWVEVGNSGVFRPEMLLPMGLPENVSVIAWGLSLERPTMIKYGINNIRELVGHKVNLQMVYDSPLCRLDAEPRPPPTQEAA
B4: sp¦Q9BUJ2¦HNRL1_HUMAN (protein, UniProt Q9BUJ2 1-856, looked up)
Heterogeneous nuclear …: MDVRRLKVNELREELQRRGLDTRGLKAELAERLQAALEAEEPDDERELDADDEPGRPGHINEEVETEGGSELEGTAQPPPPGLQPHAEPGGYSGPDGHYAMDNITRQNQFYDTQVIKQENESGYERRPLEMEQQQAYRPEMKTEMKQGAPTSFLPPEASQLKPDRQQFQSRKRPYEENRGRGYFEHREDRRGRSPQPPAEEDEDDFDDTLVAIDTYNCDLHFKVARDRSSGYPLTIEGFAYLWSGARASYGVRRGRVCFEMKINEEISVKHLPSTEPDPHVVRIGWSLDSCSTQLGEEPFSYGYGGTGKKSTNSRFENYGDKFAENDVIGCFADFECGNDVELSFTKNGKWMGIAFRIQKEALGGQALYPHVLVKNCAVEFNFGQRAEPYCSVLPGFTFIQHLPLSERIRGTVGPKSKAECEILMMVGLPAAGKTTWAIKHAASNPSKKYNILGTNAIMDKMRVMGLRRQRNYAGRWDVLIQQATQCLNRLIQIAARKKRNYILDQTNVYGSAQRRKMRPFEGFQRKAIVICPTDEDLKDRTIKRTDEEGKDVPDHAVLEMKANFTLPDVGDFLDEVLFIELQREEADKLVRQYNEEGRKAGPPPEKRFDNRGGGGFRGRGGGGGFQRYENRGPPGGNRGGFQNRGGGSGGGGNYRGGFNRSGGGGYSQNRWGNNNRDNNNSNNRGSYNRAPQQQPPPQQPPPPQPPPQQPPPPPSYSPARNPPGASTYNKNSNIPGSSANTSTPTVSSYSPPQPSYSQPPYNQGGYSQGYTAPPPPPPPPPAYNYGSYGGYNPAPYTPPPPPTAQTYPQPSYNQYQQYAQQWNQYYQNQGQWPPYYGNYDYGSYSGNTQGGTSTQ
B5: sp¦Q12788¦TBL3_HUMAN (protein, UniProt Q12788 2-808, looked up)
Transducin beta-like protein 3: AETAAGVGRFKTNYAVERKIEPFYKGGKAQLDQTGQHLFCVCGTRVNILEVASGAVLRSLEQEDQEDITAFDLSPDNEVLVTASRALLLAQWAWQEGSVTRLWKAIHTAPVATMAFDPTSTLLATGGCDGAVRVWDIVRHYGTHHFRGSPGVVHLVAFHPDPTRLLLFSSATDAAIRVWSLQDRSCLAVLTAHYSAVTSLAFSADGHTMLSSGRDKICIIWDLQSCQATRTVPVFESVEAAVLLPEEPVSQLGVKSPGLYFLTAGDQGTLRVWEAASGQCVYTQAQPPGPGQELTHCTLAHTAGVVLTATADHNLLLYEARSLRLQKQFAGYSEEVLDVRFLGPEDSHVVVASNSPCLKVFELQTSACQILHGHTDIVLALDVFRKGWLFASCAKDQSVRIWRMNKAGQVMCVAQGSGHTHSVGTVCCSRLKESFLVTGSQDCTVKLWPLPKALLSKNTAPDNGPILLQAQTTQRCHDKDINSVAIAPNDKLLATGSQDRTAKLWALPQCQLLGVFSGHRRGLWCVQFSPMDQVLATASADGTIKLWALQDFSCLKTFEGHDASVLKVAFVSRGTQLLSSGSDGLVKLWTIKNNECVRTLDAHEDKVWGLHCSRLDDHALTGASDSRVILWKDVTEAEQAEEQARQEEQVVRQQELDNLLHEKRYLRALGLAISLDRPHTVLTVIQAIRRDPEACEKLEATMLRLRRDQKEALLRFCVTWNTNSRHCHEAQAVLGVLLRREAPEELLAYEGVRAALEALLPYTERHFQRLSRTLQAAAFLDFLWHNMKLPVPAAAPTPWETHKGALP
B6: sp¦P25705¦ATPA_HUMAN (protein, UniProt P25705 44-553, looked up)
ATP synthase F(1) complex …: QKTGTAEMSSILEERILGADTSVDLEETGRVLSIGDGIARVHGLRNVQAEEMVEFSSGLKGMSLNLEPDNVGVVVFGNDKLIKEGDIVKRTGAIVDVPVGEELLGRVVDALGNAIDGKGPIGSKTRRRVGLKAPGIIPRISVREPMQTGIKAVDSLVPIGRGQRELIIGDRQTGKTSIAIDTIINQKRFNDGSDEKKKLYCIYVAIGQKRSTVAQLVKRLTDADAMKYTIVVSATASDAAPLQYLAPYSGCSMGEYFRDNGKHALIIYDDLSKQAVAYRQMSLLLRRPPGREAYPGDVFYLHSRLLERAAKMNDAFGGGSLTALPVIETQAGDVSAYIPTNVISITDGQIFLETELFYKGIRPAINVGLSVSRVGSAAQTRAMKQVAGTMKLELAQYREVAAFAQFGSDLDAATQQLLSRGVRLTELLKQGQYSPMAIEEQVAVIYAGVRGYLDKLEPSKITKFENAFLSHVVSQHQALLGTIRADGKISEQSDAKLKEIVTNFLAGFEA
B7: sp¦Q13011¦ECH1_HUMAN (protein, UniProt Q13011 34-328, looked up)
Delta(3,5)-Delta(2,4)-dienoyl- …: TGSSAQEEASGVALGEAPDHSYESLRVTSAQKHVLHVQLNRPNKRNAMNKVFWREMVECFNKISRDADCRAVVISGAGKMFTAGIDLMDMASDILQPKGDDVARISWYLRDIITRYQETFNVIERCPKPVIAAVHGGCIGGGVDLVTACDIRYCAQDAFFQVKEVDVGLAADVGTLQRLPKVIGNQSLVNELAFTARKMMADEALGSGLVSRVFPDKEVMLDAALALAAEISSKSPVAVQSTKVNLLYSRDHSVAESLNYVASWNMSMLQTQDLVKSVQATTENKELKTVTFSKL
B8: sp¦Q13423¦NNTM_HUMAN (protein, UniProt Q13423 44-1086, looked up)
NAD(P) transhydrogenase, …: CKAPVKPGIPYKQLTVGVPKEIFQNEKRVALSPAGVQNLVKQGFNVVVESGAGEASKFSDDHYRVAGAQIQGAKEVLASDLVVKVRAPMVNPTLGVHEADLLKTSGTLISFIYPAQNPELLNKLSQRKTTVLAMDQVPRVTIAQGYDALSSMANIAGYKAVVLAANHFGRFFTGQITAAGKVPPAKILIVGGGVAGLASAGAAKSMGAIVRGFDTRAAALEQFKSLGAEPLEVDLKESGEGQGGYAKEMSKEFIEAEMKLFAQQCKEVDILISTALIPGKKAPVLFNKEMIESMKEGSVVVDLAAEAGGNFETTKPGELYIHKGITHIGYTDLPSRMATQASTLYSNNITKLLKAISPDKDNFYFDVKDDFDFGTMGHVIRGTVVMKDGKVIFPAPTPKNIPQGAPVKQKTVAELEAEKAATITPFRKTMSTASAYTAGLTGILGLGIAAPNLAFSQMVTTFGLAGIVGYHTVWGVTPALHSPLMSVTNAISGLTAVGGLALMGGHLYPSTTSQGLAALAAFISSVNIAGGFLVTQRMLDMFKRPTDPPEYNYLYLLPAGTFVGGYLAALYSGYNIEQIMYLGSGLCCVGALAGLSTQGTARLGNALGMIGVAGGLAATLGVLKPGPELLAQMSGAMALGGTIGLTIAKRIQISDLPQLVAAFHSLVGLAAVLTCIAEYIIEYPHFATDAAANLTKIVAYLGTYIGGVTFSGSLIAYGKLQGLLKSAPLLLPGRHLLNAGLLAASVGGIIPFMVDPSFTTGITCLGSVSALSAVMGVTLTAAIGGADMPVVITVLNSYSGWALCAEGFLLNNNLLTIVGALIGSSGAILSYIMCVAMNRSLANVILGGYGTTSTAGGKPMEISGTHTEINLDNAIDMIREANSIIITPGYGLCAAKAQYPIADLVKMLTEQGKKVRFGIHPVAGRMPGQLNVLLAEAGVPYDIVLEMDEINHDFPDTDLVLVIGANDTVNSAAQEDPNSIIAGMPVLEVWKSKQVIVMKRSLGVGYAAVDNPIFYKPNTAMLLGDAKKTCDALQAKVRESYQK

In the first series the test system is human HL60 cells. Put plainly: SWATH-MS proteomics, differential protein representation, akirin2 KO vs WT HL60 cells. The format is cell-based. The conditions noted are these: KO vs WT HL60 cells; sheet "Under-represented in KO". In a few lines: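 Three biological replicates per genotype; 150 µg protein FASP/trypsin digested; IDA library (3 µg digest); SWATH variable windows, 5 µg/sample, 3.6 s cycle; gradient 5–30% B 120 min then 30–60% B 15 min; 1% global FDR; TAS normalization.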
B1: the “Fold Change” value worked out at 0.8606 and the “Log (Fold Change)” value was -0.06519.
For the molecule B2, the “Fold Change” value was 0.8578 and the “Log (Fold Change)” value is listed as -0.06661.
The corresponding values for B3 are 0.8661 and -0.06244.
In the same order, the values of B4 are 0.8561 and -0.06747.
Turning to B5, the “Fold Change” value came to 0.8625 and the “Log (Fold Change)” value is -0.06425.
Regarding B6, the “Fold Change” value worked out at 0.8658 and the “Log (Fold Change)” value is recorded as -0.06257.
Take B7: the “Fold Change” value is recorded as 0.8532 and the “Log (Fold Change)” value is on record as -0.06896.

The same series, now with this note: akirin2 KO vs WT HL60 cells, SWATH-MS; sheet "Under-represented in KO".
With B8, the “Fold Change” value is listed as 0.8519 and the “Log (Fold Change)” value is listed as -0.06959.
